Values from PubChem BioAssay AID1159579 (Peter MacCallum Cancer Centre, 2015)

- Screen: 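Retest candidate lymphatic endothelial migration regulators using several independent siRNAs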 (follow-up of hits)
- Cell system: human dermal lymphatic endothelial cells
- Reagents: single siRNA against human genes, 25 nM
- Measured: 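High content images of wound closure area and cell nuclei counts, each the average of two wells, expressed against mock transfection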
- Direction: migration relative to mock: higher = more migration into the scratch; mean nuclei count: higher = more cells remaining
- Active means: 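Called active when the migration ratio is 0.6 or lower (impaired) or 1.3 or higher (accelerated), but inactive whenever the mean nuclei count falls under 3300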
- Calls: active = migration changed (impaired or accelerated); inactive = no migration change, or too few cells
The whole screen tested about 2,000 reagents; this is a part drawn at random. Over the whole deposit, 549 (27%) got an active call. 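Some migration ratios are negative; siRNAs with too few cells are inactive whatever their migration ratio.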 The numbers tell different reagents against one gene apart. The record does not give: the time to read-out.

migration relative to mock | migration and cell number class | mean nuclei count | activity call | Target gene | siRNA no.
0.95 | no change in migration or cell number | 6625 | inactive | ABLIM1 | 1
0.69 | no change in migration or cell number | 6175 | inactive | ABLIM1 | 2
1.15 | no change in migration or cell number | 5836 | inactive | ABLIM1 | 3
0.43 | migration reduced | 3370 | active | ABLIM1 | 4
0.57 | migration reduced | 5654 | active | FBXW11 | 1
0.94 | no change in migration or cell number | 4870 | inactive | FBXW11 | 2
0.53 | migration reduced | 4758 | active | FBXW11 | 3
0.5 | migration reduced | 5236 | active | FBXW11 | 4
0.62 | no change in migration or cell number | 4668 | inactive | CD8A | 1
0.96 | no change in migration or cell number | 6114 | inactive | CD8A | 2
0.58 | migration reduced | 5311 | active | CD8A | 3
-1.23 | too few cells; migration not scored | 2302 | inactive | CD8A | 4
0.98 | no change in migration or cell number | 5730 | inactive | GJC3 | 1
0.52 | migration reduced | 4167 | active | GJC3 | 2
0.86 | no change in migration or cell number | 5646 | inactive | GJC3 | 3
0.92 | no change in migration or cell number | 4752 | inactive | GJC3 | 4

Looked up above.
Value of CD8A #2 under “activity call”: inactive
Entry for CD8A #3 in “mean nuclei count”: 5311

The list goes on:
migration relative to mock | migration and cell number class | mean nuclei count | activity call | Target gene | siRNA no.
0.9 | no change in migration or cell number | 4470 | inactive | CAMTA2 | 1
1.21 | no change in migration or cell number | 4244 | inactive | CAMTA2 | 2
1.06 | no change in migration or cell number | 4962 | inactive | CAMTA2 | 3
0.86 | no change in migration or cell number | 5344 | inactive | CAMTA2 | 4
-0.03 | migration reduced | 3636 | active | GRHL1 | 1
0.46 | too few cells; migration not scored | 3072 | inactive | GRHL1 | 2
0.92 | no change in migration or cell number | 6597 | inactive | GRHL1 | 3
0.56 | migration reduced | 4390 | active | GRHL1 | 4
0.76 | no change in migration or cell number | 7128 | inactive | MAPKAPK2 | 1
0.69 | no change in migration or cell number | 5842 | inactive | MAPKAPK2 | 2
0.65 | no change in migration or cell number | 6599 | inactive | MAPKAPK2 | 3
1 | no change in migration or cell number | 5679 | inactive | MAPKAPK2 | 4
